Values quoted from earlier work as cited in patent US12187997B2, “Integrated human organ-on-chip microphysiological systems” (President and Fellows of Harvard College, priority 2011, dated 2025).

Conditions: Table 1

For `CCCCc1oc2ccccc2c1C(=O)c1cc(I)c(OCCN(CC)CC)c(I)c1` [Amiodarone], the “Organ Toxicity” value is given as “Lung, liver”.
